# The supplement of paper PMC8728848
# The list shows a part of the results.
# B1: CRT-1 (Homo sapiens), P27797 (protein)
# chain: MLLSVPLLLGLLGLAVAEPAVYFKEQFLDGDGWTSRWIESKHKSDFGKFVLSSGKFYGDEEKDKGLQTSQDARFYALSASFEPFSNKGQTLVVQFTVKHEQNIDCGGGYVKLFPNSLDQTDMHGDSEYNIMFGPDICGPGTKKVHVIFNYKGKNVLINKDIRCKDDEFTHLYTLIVRPDNTYEVKIDNSQVESGSLEDDWDFLPPKKIKDPDASKPEDWDERAKIDDPTDSKPEDWDKPEHIPDPDAKKPEDWDEEMDGEWEPPVIQNPEYKGEWKPRQIDNPDYKGTWIHPEIDNPEYSPDPSIYAYDNFGVLGLDLWQVKSGTIFDNFLITNDEAYAEEFGNETWGVTKAAEKQMKDKQDEEQRLKEEEEDKKRKEEEEAEDKEDDEDKDEDEEDEEDKEEDEEEDVPGQAKDEL
# Assays:
# Assay in all cases: glycan array binding signal (z-score within array); higher = stronger binding
# Conditions in all cases: glycan notation: IUPAC condensed, linker removed
# [1] = target: GlcNAc(b1-3)Gal(b1-4)GlcNAc(b1-6)[Gal(b1-3)]GalNAc
# Method in brief: (§1)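 The binding signal is a Z-score computed within each array and averaged over linkers. Arrays of the same protein sequence at different concentrations or buffers were also averaged together. Data originate from 3228 arrays in the Consortium for Functional Glycomics database, kept only where the protein sequence was available.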
# [2] = target: GlcNAc(b1-3)Gal(b1-4)GlcNAc(b1-6)[GlcNAc(b1-3)Gal(b1-3)]GalNAc
# Method in brief: as §1
# [3] = target: GlcNAc(b1-3)Gal(b1-4)GlcNAc(b1-6)[GlcNAc(b1-3)]Gal(b1-4)GlcNAc
# Method in brief: as §1
# GlcNAc(b1-3)GalNAc = target: GlcNAc(b1-3)GalNAc
# Method in brief: as §1
# GlcNAc(b1-3)Man = target: GlcNAc(b1-3)Man
# Method in brief: as §1
# [4] = target: GlcNAc(b1-3)[GlcNAc(b1-4)][GlcNAc(b1-6)]GlcNAc
# Method in brief: as §1
# [5] = target: GlcNAc(b1-3)[GlcNAc(b1-6)]Gal(b1-4)GlcNAc
# Method in brief: as §1
# [6] = target: GlcNAc(b1-3)[GlcNAc(b1-6)]GalNAc
# Method in brief: as §1
# [7] = target: GlcNAc(b1-3)[GlcNAc(b1-6)]GlcNAc(b1-4)GlcNAc
# Method in brief: as §1
# [8] = target: GlcNAc(b1-4)Gal(b1-4)GlcNAc
# Method in brief: as §1
# GlcNAc(b1-4)GlcNAc = target: GlcNAc(b1-4)GlcNAc
# Method in brief: as §1
# [9] = target: GlcNAc(b1-4)GlcNAc(b1-4)GlcNAc
# Method in brief: as §1
# [10] = target: GlcNAc(b1-4)GlcNAc(b1-4)GlcNAc(b1-4)GlcNAc(b1-4)GlcNAc
# Method in brief: as §1
# [11] = target: GlcNAc(b1-4)GlcNAc(b1-4)GlcNAc(b1-4)GlcNAc(b1-4)GlcNAc(b1-4)GlcNAc
# Method in brief: as §1
# [12] = target: GlcNAc(b1-4)[GlcNAc(b1-6)]GalNAc
# Method in brief: as §1
# [13] = target: GlcNAc(b1-6)Gal(b1-4)GlcNAc
# Method in brief: as §1
# GlcNAc(b1-6)GalNAc = target: GlcNAc(b1-6)GalNAc
# Method in brief: as §1
# GlcNAc3Prop(b1-4)GlcNAc = target: GlcNAc3Prop(b1-4)GlcNAc
# Method in brief: as §1
# [14] = target: GlcNAc6S(b1-3)Gal(b1-4)GlcNAc
# Method in brief: as §1
# Kdn(a2-3)Gal(b1-3)GalNAc = target: Kdn(a2-3)Gal(b1-3)GalNAc
# Method in brief: as §1
# Kdn(a2-3)Gal(b1-3)GlcNAc = target: Kdn(a2-3)Gal(b1-3)GlcNAc
# Method in brief: as §1
# Kdn(a2-3)Gal(b1-4)Glc = target: Kdn(a2-3)Gal(b1-4)Glc
# Method in brief: as §1
# Kdn(a2-3)Gal(b1-4)GlcNAc = target: Kdn(a2-3)Gal(b1-4)GlcNAc
# Method in brief: as §1
# [15] = target: Kdn(a2-3)Gal(b1-4)[Fuc(a1-3)]GlcNAc
# Method in brief: as §1
# Kdn(a2-6)Gal(b1-4)GlcNAc = target: Kdn(a2-6)Gal(b1-4)GlcNAc
# Method in brief: as §1
# [16] = target: Man(a1-2)Man(a1-2)Man(a1-3)Man
# Method in brief: as §1
# [17] = target: Man(a1-2)Man(a1-2)Man(a1-6)[Man(a1-3)]Man
# Method in brief: as §1
# Man(a1-2)Man(a1-3)Man = target: Man(a1-2)Man(a1-3)Man
# Method in brief: as §1
# [18] = target: Man(a1-2)Man(a1-3)[Man(a1-2)Man(a1-6)]Man
# Method in brief: as §1
# [19] = target: Man(a1-2)Man(a1-3)[Man(a1-2)Man(a1-6)]Man(a1-6)[Man(a1-2)Man(a1-2)Man(a1-3)]Man
# Method in brief: as §1
# [20] = target: Man(a1-2)Man(a1-3)[Man(a1-2)Man(a1-6)]Man(a1-6)[Man(a1-2)Man(a1-2)Man(a1-3)]Man(b1-4)GlcNAc(b1-4)GlcNAc
# Method in brief: as §1
# [21] = target: Man(a1-2)Man(a1-3)[Man(a1-2)Man(a1-6)]Man(a1-6)[Man(a1-3)[Man(a1-6)]Man(a1-6)]Man(b1-4)GlcNAc(b1-4)GlcNAc
# Method in brief: as §1
# [22] = target: Man(a1-2)Man(a1-3)[Man(a1-6)]Man(a1-6)[Man(a1-2)Man(a1-3)]Man(b1-4)GlcNAc(b1-4)GlcNAc
# Method in brief: as §1
# [23] = target: Man(a1-2)Man(a1-6)[Man(a1-3)]Man(a1-6)[Man(a1-2)Man(a1-2)Man(a1-3)]Man
# Method in brief: as §1
# [24] = target: Man(a1-2)Man(a1-6)[Man(a1-3)]Man(a1-6)[Man(a1-2)Man(a1-2)Man(a1-3)]Man(b1-4)GlcNAc(b1-4)GlcNAc
# Method in brief: as §1
# Man(a1-3)[Man(a1-6)]Man = target: Man(a1-3)[Man(a1-6)]Man
# Method in brief: as §1
# [25] = target: Man(a1-3)[Man(a1-6)]Man(a1-6)[Man(a1-2)Man(a1-3)]Man(b1-4)GlcNAc(b1-4)GlcNAc
# Method in brief: as §1
# [26] = target: Man(a1-3)[Man(a1-6)]Man(a1-6)[Man(a1-3)]Man
# Method in brief: as §1
binder,measurement,setting,value
B1,glycan array binding signal (z-score),[1],-1.28
same,glycan array binding signal (z-score),[2],-0.268
same,glycan array binding signal (z-score),[3],0.011
same,glycan array binding signal (z-score),GlcNAc(b1-3)GalNAc,-0.443
same,glycan array binding signal (z-score),GlcNAc(b1-3)Man,0.915
same,glycan array binding signal (z-score),[4],0.03
same,glycan array binding signal (z-score),[5],-0.199
same,glycan array binding signal (z-score),[6],-0.089
same,glycan array binding signal (z-score),[7],0.352
same,glycan array binding signal (z-score),[8],-0.496
same,glycan array binding signal (z-score),GlcNAc(b1-4)GlcNAc,-0.099
same,glycan array binding signal (z-score),[9],-0.088
same,glycan array binding signal (z-score),[10],-0.102
same,glycan array binding signal (z-score),[11],-0.409
same,glycan array binding signal (z-score),[12],0.752
same,glycan array binding signal (z-score),[13],-0.309
same,glycan array binding signal (z-score),GlcNAc(b1-6)GalNAc,-0.411
same,glycan array binding signal (z-score),GlcNAc3Prop(b1-4)GlcNAc,-0.345
same,glycan array binding signal (z-score),[14],0.689
same,glycan array binding signal (z-score),Kdn(a2-3)Gal(b1-3)GalNAc,0.048
same,glycan array binding signal (z-score),Kdn(a2-3)Gal(b1-3)GlcNAc,-0.19
same,glycan array binding signal (z-score),Kdn(a2-3)Gal(b1-4)Glc,-0.238
same,glycan array binding signal (z-score),Kdn(a2-3)Gal(b1-4)GlcNAc,0.277
same,glycan array binding signal (z-score),[15],0.352
same,glycan array binding signal (z-score),Kdn(a2-6)Gal(b1-4)GlcNAc,-0.236
same,glycan array binding signal (z-score),[16],-0.312
same,glycan array binding signal (z-score),[17],-0.307
same,glycan array binding signal (z-score),Man(a1-2)Man(a1-3)Man,-0.517
same,glycan array binding signal (z-score),[18],-0.932
same,glycan array binding signal (z-score),[19],-0.402
same,glycan array binding signal (z-score),[20],0.02
same,glycan array binding signal (z-score),[21],-0.091
same,glycan array binding signal (z-score),[22],-0.4
same,glycan array binding signal (z-score),[23],-0.219
same,glycan array binding signal (z-score),[24],-0.187
same,glycan array binding signal (z-score),Man(a1-3)[Man(a1-6)]Man,-0.142
same,glycan array binding signal (z-score),[25],0.215
same,glycan array binding signal (z-score),[26],0.061

# Retrieved one by one from above, two records:
binder,measurement,setting,value
B1,glycan array binding signal (z-score),[13],-0.309
same,glycan array binding signal (z-score),[8],-0.496
